Reference: EP2362225A1 (Charité Universitätsmedizin Berlin, priority 2010, dated 2011)
Part of at least one peptide drawing is inferred or uncertain, most often the ends. Where no end group is shown, it is not given here.

Amino acid sequences for entries named in this document (tags omitted). A change or cut given only in a name is not applied to a line headed by its entry.
UniProt P28072: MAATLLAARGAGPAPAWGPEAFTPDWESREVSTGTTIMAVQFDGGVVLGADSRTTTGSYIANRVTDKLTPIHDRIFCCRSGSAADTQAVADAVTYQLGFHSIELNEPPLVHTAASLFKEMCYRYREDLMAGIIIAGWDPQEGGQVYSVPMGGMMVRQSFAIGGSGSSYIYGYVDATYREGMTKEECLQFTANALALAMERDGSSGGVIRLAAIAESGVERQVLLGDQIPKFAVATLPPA
UniProt P28074: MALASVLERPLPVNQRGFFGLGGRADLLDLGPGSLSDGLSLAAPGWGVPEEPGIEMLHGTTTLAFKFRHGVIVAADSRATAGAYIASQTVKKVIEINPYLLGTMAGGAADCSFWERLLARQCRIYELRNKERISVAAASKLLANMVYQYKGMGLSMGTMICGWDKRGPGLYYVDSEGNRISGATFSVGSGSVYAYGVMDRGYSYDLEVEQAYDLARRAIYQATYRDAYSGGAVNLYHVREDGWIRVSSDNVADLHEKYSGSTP
UniProt Q99436: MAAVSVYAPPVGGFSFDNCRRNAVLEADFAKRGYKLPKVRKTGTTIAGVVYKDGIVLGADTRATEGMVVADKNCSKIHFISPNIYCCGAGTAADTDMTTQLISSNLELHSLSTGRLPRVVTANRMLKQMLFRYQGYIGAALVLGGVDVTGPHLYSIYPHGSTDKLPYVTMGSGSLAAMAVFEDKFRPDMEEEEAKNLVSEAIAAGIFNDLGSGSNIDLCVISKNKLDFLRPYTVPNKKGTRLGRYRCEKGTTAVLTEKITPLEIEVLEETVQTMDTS
UniProt P28063: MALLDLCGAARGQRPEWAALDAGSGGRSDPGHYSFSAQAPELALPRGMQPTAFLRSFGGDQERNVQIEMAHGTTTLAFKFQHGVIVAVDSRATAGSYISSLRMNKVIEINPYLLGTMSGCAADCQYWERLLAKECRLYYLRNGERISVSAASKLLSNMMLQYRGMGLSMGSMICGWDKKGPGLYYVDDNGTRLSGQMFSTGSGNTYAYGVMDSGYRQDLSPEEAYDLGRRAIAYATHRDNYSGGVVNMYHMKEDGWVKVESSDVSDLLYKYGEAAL
UniProt P28076: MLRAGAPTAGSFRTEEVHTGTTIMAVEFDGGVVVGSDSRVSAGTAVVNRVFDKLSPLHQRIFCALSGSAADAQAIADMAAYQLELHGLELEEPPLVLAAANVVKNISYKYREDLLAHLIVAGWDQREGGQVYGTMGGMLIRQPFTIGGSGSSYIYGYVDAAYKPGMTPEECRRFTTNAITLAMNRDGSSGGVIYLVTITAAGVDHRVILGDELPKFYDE
UniProt P40306: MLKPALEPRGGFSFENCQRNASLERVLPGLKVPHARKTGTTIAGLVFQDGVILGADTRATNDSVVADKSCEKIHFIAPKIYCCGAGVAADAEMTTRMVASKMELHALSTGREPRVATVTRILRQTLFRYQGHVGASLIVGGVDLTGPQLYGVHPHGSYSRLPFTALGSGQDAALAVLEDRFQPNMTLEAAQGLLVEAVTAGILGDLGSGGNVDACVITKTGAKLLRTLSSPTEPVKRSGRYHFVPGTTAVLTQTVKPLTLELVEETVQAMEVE
UniProt P28062: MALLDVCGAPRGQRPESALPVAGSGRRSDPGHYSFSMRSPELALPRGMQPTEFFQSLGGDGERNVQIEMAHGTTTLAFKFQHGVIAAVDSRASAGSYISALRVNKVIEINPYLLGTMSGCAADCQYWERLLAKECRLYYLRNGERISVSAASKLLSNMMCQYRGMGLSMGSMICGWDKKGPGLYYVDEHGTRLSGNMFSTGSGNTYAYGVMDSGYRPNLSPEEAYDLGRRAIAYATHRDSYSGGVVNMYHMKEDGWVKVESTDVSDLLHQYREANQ
UniProt P28065: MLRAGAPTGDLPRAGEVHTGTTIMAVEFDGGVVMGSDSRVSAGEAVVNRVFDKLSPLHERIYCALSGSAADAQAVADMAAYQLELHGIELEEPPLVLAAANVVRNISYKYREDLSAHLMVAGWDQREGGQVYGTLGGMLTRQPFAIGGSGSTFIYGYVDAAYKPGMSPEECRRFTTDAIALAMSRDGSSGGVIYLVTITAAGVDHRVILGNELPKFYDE

Legend:
[1] = biological target: T1, T2 20S proteasomes (Homo sapiens, UniProt P28072+P28074+Q99436); assay: In vitro digestion of synthetic gp10035-57 by T2 20S proteasomes, quantification of PSP and PCP by MS; format: biochemical; conditions: substrate gp10035-57, T2 20S proteasomes (standard proteasome), per nmol of released [VSRQL]
T1 construct: 20S proteasomes were purified from 3*E+09 LcLs, T2 and T2.27 cells; endogenous in cells; host or cells: T2 (human T cell leukemia/B cell hybrid, lacking LMP2/LMP7); 20S purified from the cells

[2] = biological target: T2, T2.27 20S proteasomes (UniProt P28063+P28076+P40306); assay: In vitro digestion of synthetic gp10035-57 by T2.27 20S proteasomes, quantification of PSP and PCP by MS; format: biochemical, human; conditions: substrate gp10035-57, T2.27 20S proteasomes (immunoproteasomes, murine LMP2 and LMP7)
T2 construct: expressed in transfected cells; host or cells: T2.27 (human T2 cells transfected with murine LMP2 and LMP7, G418 selection); 20S purified from the cells

[3] = biological target: T3, LcL 20S proteasomes (Homo sapiens, UniProt P28062+P28065+P40306); assay: In vitro digestion of synthetic gp10040-52 by LcL 20S proteasomes, quantification of PSP by MS; format: biochemical; conditions: substrate gp10040-52, LcL 20S proteasomes
T3 construct: 20S proteasomes were purified from 3*E+09 LcLs, T2 and T2.27 cells; endogenous in cells; host or cells: LcL (EBV-immortalized human B lymphoblastoid cells); 20S purified by ammonium sulphate fractionation and chromatography

VSRQLVSRQL [[VSRQL][VSRQL]]
average PSP/PCP ratio [1]: 5.05 ± 3.50 pmol
average PSP/PCP ratio [2]: 4.52 ± 2.26 pmol per nmol of released [VSRQL] peptide

QLYPEWRTK [[QLYPEW][RTK]]
average efficiency of PSP generation [3]: 4.54 ± 1.21 pmol per nmol of cleaved substrate
